Test results: PubChem BioAssay AID220 (DTP/NCI, 2004)
The list is a part of this screen's results and no random one: it gathers tests that were run many times, whatever their T/C, doses with no T/C, and many T/C values between a quarter and a half above the control. Other doses and runs of a compound stand elsewhere. T/C gives the treated animals as a percentage of the vehicle group. Schedule codes are those of the source, taken here to give the interval after Q, in days (D) or hours (H), and the number of doses after X. Some T/C values carry the count of animals alive at the toxicity check (mostly the fifth day); where none is given, no animal had died by that day. Some entries give survivors of the animals treated and no T/C: the source files T/C as zero there, which appears to mark a toxic dose or a test without result, not a measured value. Survivors were counted at the toxicity check, usually on the fifth day, unless a day is given; later deaths do not show. Some entries were tested several times; the results are listed from low to high.

Test system: CD8F1 mice, subcutaneous mammary adenocarcinoma, T/C%
Experiment: NCI In Vivo Anticancer Drug Screen. Data for tumor model Mammary Adenocarcinoma CD8F1 (subcutaneous) in CD8F1
Settings: higher T/C = larger tumour
How it was run: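 Antitumor activity is assessed in transplantable-tumor mice by comparing the treated group with a vehicle-treated control group. Survival or tumor size serves as the measure, reported as T divided by C.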

[1] = T/C endpoint: median tumor weight (est.), dose: 50.0 mg/kg/injection, schedule: Q07DX005 (ip), vehicle: saline with Tween-80, evaluated on day 30
[2] = T/C endpoint: median tumor weight (est.), dose: 400.0 mg/kg/injection, schedule: Q07DX005 (ip), vehicle: saline with Tween-80
[3] = T/C endpoint: median tumor weight change, dose: 100.0 mg/kg/injection, schedule: Q01DX001 (ip), vehicle: suspension in saline
[4] = T/C endpoint: median tumor weight change, dose: 200.0 mg/kg/injection, schedule: Q01DX001 (ip), vehicle: suspension in saline
[5] = T/C endpoint: median tumor weight change, dose: 15.0 mg/kg/injection, schedule: Q01DX001 (ip), vehicle: Klucel (hydroxypropylcellulose) (HPC)
[6] = T/C endpoint: median tumor weight change, dose: 30.0 mg/kg/injection, schedule: Q01DX001 (ip), vehicle: Klucel (hydroxypropylcellulose) (HPC)

With `O=[N+]([O-])c1ccc(Cl)c([N+](=O)[O-])c1` the T/C (T/C endpoint: median tumor weight (est.), dose: 15.0 mg/kg/injection, schedule: Q07DX005 (ip), vehicle: saline with Tween-80, evaluated on day 30) was 126 % of control.

For `Nc1c(Cl)c(Cl)nc(C(=O)O)c1Cl`, the T/C (T/C endpoint: mean tumor weight, dose: 50.0 mg/kg/injection, schedule: Q07DX007 (ip), vehicle: saline, evaluated on day 44) was 144 % of control [8 of 10 alive], the T/C (T/C endpoint: mean tumor weight, dose: 100.0 mg/kg/injection, schedule: Q07DX006 (ip), vehicle: saline, evaluated on day 35) was 135 % of control and the T/C (T/C endpoint: mean tumor weight, dose: 100.0 mg/kg/injection, schedule: Q07DX007 (ip), vehicle: saline, evaluated on day 44) was 143 % of control [9 of 10 alive].

With `COc1cc2cc(c1Cl)N1CC(O)C(C)(O)C(=O)NC(C)C(=O)OC(CC1=O)C1(C)OC1C(C)C1CC(O)(NC(=O)O1)C(OC)/C=C\C=C(\C)C2OC` (stereo unspecified) the T/C (T/C endpoint: median tumor weight change, dose: 32.0 micrograms/kg/injection, schedule: Q01DX001 (ip), vehicle: distilled water + alcohol, evaluated on day 31) was 143 % of control and the survivor count (T/C endpoint: median tumor weight change, dose: 128.0 micrograms/kg/injection, schedule: Q01DX001 (ip), vehicle: distilled water + alcohol) was 0 of 10 on day 31.

In the case of `CC[C@@]1(O)C[C@H](OC2CC(N(C)C)C(OC3CC(O)C(OC4CCC(=O)C(C)O4)C(C)O3)C(C)O2)c2c(cc3c(c2O)C(=O)c2c(O)ccc(O)c2C3=O)[C@H]1C(=O)OC` (stereo partly specified), the T/C (T/C endpoint: median tumor weight (est.), dose: 1.0 mg/kg/injection, schedule: Q07DX005 (ip), vehicle: water, evaluated on day 32) is reported as 137 % of control.

With `Cc1cc(NCCN(C(C)C)C(C)C)nc(/N=C(\N)Nc2ccc(Cl)c(C(F)(F)F)c2)n1` the survivor count (T/C endpoint: median tumor weight change, dose: 200.0 mg/kg/injection, schedule: Q01DX001 (ip), vehicle: Klucel (hydroxypropylcellulose) (HPC)) was 1 of 10 on day 27 and 4 of 10 on day 32.

In the case of `CC(=O)N(C)C`, the survivor count (T/C endpoint: median tumor weight change, dose: 7200.0 mg/kg/injection, schedule: Q01DX001 (ip), vehicle: saline) is reported as 0 of 10 on day 27 and 0 of 10 on day 32.

In the case of `CS(=O)(=O)CS(=O)(=O)OCCCl`, the survivor count (T/C endpoint: median tumor weight change, dose: 500.0 mg/kg/injection, schedule: Q01DX001 (ip), vehicle: suspension in saline) is reported as 3 of 10 on day 31, the survivor count (T/C endpoint: median tumor weight change, dose: 1000.0 mg/kg/injection, schedule: Q01DX001 (ip), vehicle: suspension in saline) is reported as 0 of 10 on day 31 and the survivor count (T/C endpoint: median tumor weight change, dose: 2000.0 mg/kg/injection, schedule: Q01DX001 (ip), vehicle: suspension in saline) is reported as 0 of 10 on day 31.

With `CC(=S)NC(O)C(=O)c1ccccc1` (stereo unspecified) the T/C (T/C endpoint: median tumor weight (est.), dose: 12.5 mg/kg/injection, schedule: Q07DX005 (ip), vehicle: saline with Tween-80, evaluated on day 30) was 125 % of control, the T/C [1] was 132 % of control and the survivor count [2] was 1 of 10 on day 30.

For `O=c1ssc(=Nc2ccccc2)n1-c1ccccc1`, the survivor count (T/C endpoint: median tumor weight (est.), dose: 800.0 mg/kg/injection, schedule: Q07DX005 (ip), vehicle: Klucel (hydroxypropylcellulose) (HPC)) was 4 of 10 on day 30.

For `CC1=CC2c3cccc4[nH]cc(c34)CC2N(C)C1` (stereo unspecified), the T/C (T/C endpoint: median tumor weight change, dose: 12.5 mg/kg/injection, schedule: Q01DX001 (ip), vehicle: suspension in saline, evaluated on day 31) was 125 % of control [9 of 10 alive on day 31], the T/C (T/C endpoint: median tumor weight change, dose: 50.0 mg/kg/injection, schedule: Q01DX001 (ip), vehicle: suspension in saline, evaluated on day 31) was 128 % of control and the survivor count [3] was 5 of 10 on day 31. The survivor count [4] was 4 of 10 on day 31.

With `Nc1nc(N)c2cc(CNc3ccc(C(=O)NC(CC(=O)O)CC(=O)O)cc3)ccc2n1` the survivor count (T/C endpoint: median tumor weight (est.), dose: 200.0 mg/kg/injection, schedule: Q07DX005 (ip), vehicle: Klucel (hydroxypropylcellulose) (HPC)) was 0 of 10 on day 30 and the survivor count (T/C endpoint: median tumor weight (est.), dose: 400.0 mg/kg/injection, schedule: Q07DX005 (ip), vehicle: Klucel (hydroxypropylcellulose) (HPC)) was 0 of 10 on day 30.

With `FC(F)(F)c1nc2nc(Cl)c(Cl)nc2[nH]1` the survivor count (T/C endpoint: median tumor weight change, dose: 500.0 mg/kg/injection, schedule: Q01DX001 (ip), vehicle: saline with Tween-80) was 4 of 10 on day 31 and the survivor count (T/C endpoint: median tumor weight change, dose: 1000.0 mg/kg/injection, schedule: Q01DX001 (ip), vehicle: saline with Tween-80) was 0 of 10 on day 31.

In the case of `Cn1c(=O)c2ncnnc2n(C)c1=O`, the survivor count (T/C endpoint: median tumor weight (est.), dose: 37.5 mg/kg/injection, schedule: Q07DX005 (ip), vehicle: Klucel (hydroxypropylcellulose) (HPC)) is reported as 0 of 10 on day 30 and the survivor count (T/C endpoint: median tumor weight (est.), dose: 75.0 mg/kg/injection, schedule: Q07DX005 (ip), vehicle: Klucel (hydroxypropylcellulose) (HPC)) is reported as 0 of 10 on day 30.

For `C[N+](C)(C)c1ncnc2c1ncn2C1CCCO1` (stereo unspecified), the survivor count (T/C endpoint: median tumor weight (est.), dose: 200.0 mg/kg/injection, schedule: Q07DX005 (ip), vehicle: saline) was 1 of 10.

With `C[C@H](N)C(=O)N[C@@H]1[C@H]2C(=C(O)C[C@@H](O)[C@@H]2O)C(=O)O[C@]1(C)C(Cl)Cl` the survivor count (T/C endpoint: median tumor weight change, dose: 7.5 mg/kg/injection, schedule: Q01DX001 (ip), vehicle: Klucel (hydroxypropylcellulose) (HPC)) was 6 of 10 on day 28, the survivor count [5] was 0 of 10 on day 28 and the survivor count [6] was 0 of 10 on day 28.

In the case of `Cn1cnc([N+](=O)[O-])c1SCC(=O)O`, the T/C (T/C endpoint: median tumor weight (est.), dose: 50.0 mg/kg/injection, schedule: Q07DX005 (ip), vehicle: Klucel (hydroxypropylcellulose) (HPC), evaluated on day 30) is reported as 139 % of control.

In the case of `C/C=C(\Cl)C1=CC(=O)C23CC2C2(C)COC1(O)C3(O)O2` (stereo unspecified), the T/C (T/C endpoint: median tumor weight (est.), dose: 12.0 mg/kg/injection, schedule: Q07DX005 (ip), vehicle: saline with Tween-80, evaluated on day 32) is reported as 149 % of control [7 of 10 alive].

In the case of `N=[N+]=CC(=O)OCC(N)C(=O)O` (stereo unspecified), the T/C (T/C endpoint: median tumor weight (est.), dose: 3.12 mg/kg/injection, schedule: Q07DX005 (ip), vehicle: clinical formulation, evaluated on day 30) is reported as 140 % of control, the survivor count (T/C endpoint: median tumor weight (est.), dose: 50.0 mg/kg/injection, schedule: Q07DX005 (ip), vehicle: water) is reported as 6 of 10 on day 30 and the survivor count (T/C endpoint: median tumor weight (est.), dose: 100.0 mg/kg/injection, schedule: Q07DX005 (ip), vehicle: water) is reported as 0 of 10 on day 30 and 1 of 10 on day 30.

For `CN1CCN(c2ccc([N+](=O)[O-])c3no[n+]([O-])c23)CC1`, the survivor count (T/C endpoint: median tumor weight (est.), dose: 40.0 mg/kg/injection, schedule: Q07DX005 (ip), vehicle: saline with Tween-80) was 6 of 10 on day 30, the survivor count (T/C endpoint: median tumor weight (est.), dose: 80.0 mg/kg/injection, schedule: Q07DX005 (ip), vehicle: saline with Tween-80) was 0 of 10 on day 30 and the survivor count (T/C endpoint: median tumor weight (est.), dose: 160.0 mg/kg/injection, schedule: Q07DX005 (ip), vehicle: saline with Tween-80) was 0 of 10 on day 30.

`N#CC(=C1SCS1)[N+](=O)[O-]` was tested, and the T/C (T/C endpoint: median tumor weight change, dose: 3.75 mg/kg/injection, schedule: Q01DX001 (ip), vehicle: saline with Tween-80, evaluated on day 35) was 148 % of control.

In the case of `COc1ccc2c(c1)C(O)(CN)CCCCC(OC)CCCC2` (stereo unspecified), the survivor count (T/C endpoint: median tumor weight change, dose: 125.0 mg/kg/injection, schedule: Q01DX001 (ip), vehicle: Klucel (hydroxypropylcellulose) (HPC)) is reported as 4 of 10 on day 39, the survivor count (T/C endpoint: median tumor weight change, dose: 250.0 mg/kg/injection, schedule: Q01DX001 (ip), vehicle: Klucel (hydroxypropylcellulose) (HPC)) is reported as 0 of 10 on day 39 and the survivor count (T/C endpoint: median tumor weight change, dose: 500.0 mg/kg/injection, schedule: Q01DX001 (ip), vehicle: Klucel (hydroxypropylcellulose) (HPC)) is reported as 0 of 10 on day 39. The survivor count (T/C endpoint: median tumor weight change, dose: 1000.0 mg/kg/injection, schedule: Q01DX001 (ip), vehicle: Klucel (hydroxypropylcellulose) (HPC)) was 0 of 10 on day 39.

`C=C1C(C)C2C(Cc3ccccc3)NC(=O)C23C(OC(C)=O)/C=C/C(C)(O)CC(C)C/C=C/C3C1O` (stereo unspecified) was tested, and the survivor count [5] was 1 of 10 on day 26 and 1 of 10 on day 31, the survivor count [6] was 0 of 10 on day 26 and 0 of 10 on day 31 and the survivor count (T/C endpoint: median tumor weight change, dose: 60.0 mg/kg/injection, schedule: Q01DX001 (ip), vehicle: Klucel (hydroxypropylcellulose) (HPC)) was 0 of 10 on day 26 and 0 of 10 on day 31.

In the case of `CC(=O)c1c(O)c(C)c(O)c2c1OC1=CC(=O)C(C(C)=O)C(=O)C12C` (stereo unspecified), the T/C (T/C endpoint: median tumor weight (est.), dose: 200.0 mg/kg/injection, schedule: Q07DX004 (ip), vehicle: gum acacia, evaluated on day 30) is reported as 132 % of control.

With `S=c1[nH]cc2cnccn12` the T/C [1] was 125 % of control and the survivor count [2] was 2 of 10 on day 30.

`Cc1nc(N)nc(N)c1-c1ccc(Cl)c(Cl)c1` was tested, and the T/C (T/C endpoint: mean tumor weight (est.), dose: 5.0 mg/kg/injection, schedule: Q07DX003 (ip), vehicle: saline with Tween-80, evaluated on day 70) was 127 % of control [7 of 10 alive], the survivor count (T/C endpoint: median tumor weight change, dose: 100.0 mg/kg/injection, schedule: Q01DX001 (ip), vehicle: saline with Tween-80) was 1 of 10 on day 28 and the survivor count [3] was 4 of 10 on day 36 and 5 of 10 on day 27. For the same compound, the survivor count (T/C endpoint: median tumor weight change, dose: 200.0 mg/kg/injection, schedule: Q01DX001 (ip), vehicle: saline with Tween-80) was 0 of 10 on day 28 and the survivor count [4] was 0 of 10 on day 36.

`O=C1C=C[C@H](O)[C@@]2(CO)O[C@@H]12` was tested, and the survivor count (T/C endpoint: median tumor weight change, dose: 25.0 mg/kg/injection, schedule: Q01DX001 (ip), vehicle: saline with Tween-80) was 0 of 10 on day 27 and the survivor count (T/C endpoint: median tumor weight change, dose: 50.0 mg/kg/injection, schedule: Q01DX001 (ip), vehicle: saline with Tween-80) was 0 of 10 on day 27.
